Test results reported in PMC10248867, “Receptor-like cytoplasmic kinase ScRIPK in sugarcane regulates disease resistance and drought tolerance in Arabidopsis” (Frontiers in Plant Science, 2023).
These are yes or no findings as the source states them, for the method shown. In cells and extracts the contact can be indirect. Some results given as binding are weak or reduced against the parent protein; the word gives no strength. Sequences can lack the tags named with a protein.

Experiments:
[1] = target: T1, AtRIN4, BiFC fusion (YC-AtRIN4 / YN-AtRIN4) (Arabidopsis) (UniProt Q8GYN5); test: split reporter; BiFC: YN and YC fusions transformed into N. benthamiana leaves, confocal imaging after 2 days; three biological replicates
T1 sequence: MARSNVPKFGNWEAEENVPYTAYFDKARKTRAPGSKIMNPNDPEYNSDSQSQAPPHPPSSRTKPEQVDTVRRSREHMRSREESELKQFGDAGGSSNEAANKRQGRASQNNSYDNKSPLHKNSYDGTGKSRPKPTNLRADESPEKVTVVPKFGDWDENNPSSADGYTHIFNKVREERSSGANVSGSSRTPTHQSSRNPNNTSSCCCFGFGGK

[2] = target: T2, Cluc-AtRIN4 (Arabidopsis) (UniProt Q8GYN5); test: split reporter; luciferase complementation imaging (LCI): Nluc and Cluc fusions, transient infiltration of N. benthamiana leaves with Agrobacterium GV3101, LUC activity imaged after 2 days
T2 sequence: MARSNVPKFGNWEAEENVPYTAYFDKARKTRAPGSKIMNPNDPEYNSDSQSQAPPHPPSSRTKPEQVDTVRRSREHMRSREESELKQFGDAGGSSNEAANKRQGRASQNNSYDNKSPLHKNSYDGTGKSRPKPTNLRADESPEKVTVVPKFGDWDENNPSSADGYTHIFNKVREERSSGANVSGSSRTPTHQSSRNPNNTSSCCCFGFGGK

B1: AtRIPK, BiFC fusion (YN-AtRIPK / YC-AtRIPK) (enzyme, UniProt Q9ZUF4 1-462)
chain: MAVKKKVSWRSLIVGCLGDPETLMASSKKPKRKNDVIKKQSSFQRLSILDMSNPSSNTLSEDLSISLAGSDLHVFTLAELKVITQSFSSTNFLGEGGFGPVHKGFIDDKLRPGLKAQPVAVKLLDLEGLQGHREWLTEVMFLGQLKHKNLVKLIGYCCEEEHRTLVYEFMPRGSLENQLFRRYSASLPWSTRMKIAHGAATGLQFLHEAENPVIYRDFKASNILLDSDYTAKLSDFGLAKDGPEGDDTHVSTRVMGTQGYAAPEYIMTGHLTARSDVYSFGVVLLELLTGRRSVDKKRSSREQNLVDWARPMLNDPRKLSRIMDPRLEGQYSETGARKAATLAYQCLSHRPKNRPCMSAVVSILNDLKDYNDIPMGTFTYTVPNTPDNKEDDGRVGNKPRKSSHHHHHQQQQSNHPRSSPSPTTKSPSPTAKSPRNSTENHRRTLRNGVNSPLRSEAGGERY
- binding [1]: binds

B2: Nluc-AtRIPK (enzyme, UniProt Q9ZUF4 1-462)
chain: MAVKKKVSWRSLIVGCLGDPETLMASSKKPKRKNDVIKKQSSFQRLSILDMSNPSSNTLSEDLSISLAGSDLHVFTLAELKVITQSFSSTNFLGEGGFGPVHKGFIDDKLRPGLKAQPVAVKLLDLEGLQGHREWLTEVMFLGQLKHKNLVKLIGYCCEEEHRTLVYEFMPRGSLENQLFRRYSASLPWSTRMKIAHGAATGLQFLHEAENPVIYRDFKASNILLDSDYTAKLSDFGLAKDGPEGDDTHVSTRVMGTQGYAAPEYIMTGHLTARSDVYSFGVVLLELLTGRRSVDKKRSSREQNLVDWARPMLNDPRKLSRIMDPRLEGQYSETGARKAATLAYQCLSHRPKNRPCMSAVVSILNDLKDYNDIPMGTFTYTVPNTPDNKEDDGRVGNKPRKSSHHHHHQQQQSNHPRSSPSPTTKSPSPTAKSPRNSTENHRRTLRNGVNSPLRSEAGGERY
- binding [2]: binds
